Laboratory results taken from publication PMC2225445.
Results are given in words; binding and its absence hold for the method and conditions named. In cells and extracts the contact can be indirect. Some results given as binding are weak or reduced against the parent protein; the word gives no strength.

Chains of the proteins cited; added tags and fusions are not shown.
UniProt O43918: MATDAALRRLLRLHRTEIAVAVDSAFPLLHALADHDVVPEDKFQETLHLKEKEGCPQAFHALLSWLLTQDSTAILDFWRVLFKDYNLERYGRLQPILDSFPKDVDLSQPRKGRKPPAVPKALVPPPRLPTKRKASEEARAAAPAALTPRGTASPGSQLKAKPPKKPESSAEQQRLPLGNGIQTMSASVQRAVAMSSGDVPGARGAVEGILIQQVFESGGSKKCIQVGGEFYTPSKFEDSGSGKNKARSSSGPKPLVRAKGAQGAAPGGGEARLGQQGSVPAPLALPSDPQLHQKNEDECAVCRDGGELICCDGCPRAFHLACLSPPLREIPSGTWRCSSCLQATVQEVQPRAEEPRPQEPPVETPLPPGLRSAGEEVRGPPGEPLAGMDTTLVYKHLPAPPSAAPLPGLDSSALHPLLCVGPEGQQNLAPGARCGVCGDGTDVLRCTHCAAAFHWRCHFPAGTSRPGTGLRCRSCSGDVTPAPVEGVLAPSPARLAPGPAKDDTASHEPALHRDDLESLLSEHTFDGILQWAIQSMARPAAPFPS
UniProt P78527: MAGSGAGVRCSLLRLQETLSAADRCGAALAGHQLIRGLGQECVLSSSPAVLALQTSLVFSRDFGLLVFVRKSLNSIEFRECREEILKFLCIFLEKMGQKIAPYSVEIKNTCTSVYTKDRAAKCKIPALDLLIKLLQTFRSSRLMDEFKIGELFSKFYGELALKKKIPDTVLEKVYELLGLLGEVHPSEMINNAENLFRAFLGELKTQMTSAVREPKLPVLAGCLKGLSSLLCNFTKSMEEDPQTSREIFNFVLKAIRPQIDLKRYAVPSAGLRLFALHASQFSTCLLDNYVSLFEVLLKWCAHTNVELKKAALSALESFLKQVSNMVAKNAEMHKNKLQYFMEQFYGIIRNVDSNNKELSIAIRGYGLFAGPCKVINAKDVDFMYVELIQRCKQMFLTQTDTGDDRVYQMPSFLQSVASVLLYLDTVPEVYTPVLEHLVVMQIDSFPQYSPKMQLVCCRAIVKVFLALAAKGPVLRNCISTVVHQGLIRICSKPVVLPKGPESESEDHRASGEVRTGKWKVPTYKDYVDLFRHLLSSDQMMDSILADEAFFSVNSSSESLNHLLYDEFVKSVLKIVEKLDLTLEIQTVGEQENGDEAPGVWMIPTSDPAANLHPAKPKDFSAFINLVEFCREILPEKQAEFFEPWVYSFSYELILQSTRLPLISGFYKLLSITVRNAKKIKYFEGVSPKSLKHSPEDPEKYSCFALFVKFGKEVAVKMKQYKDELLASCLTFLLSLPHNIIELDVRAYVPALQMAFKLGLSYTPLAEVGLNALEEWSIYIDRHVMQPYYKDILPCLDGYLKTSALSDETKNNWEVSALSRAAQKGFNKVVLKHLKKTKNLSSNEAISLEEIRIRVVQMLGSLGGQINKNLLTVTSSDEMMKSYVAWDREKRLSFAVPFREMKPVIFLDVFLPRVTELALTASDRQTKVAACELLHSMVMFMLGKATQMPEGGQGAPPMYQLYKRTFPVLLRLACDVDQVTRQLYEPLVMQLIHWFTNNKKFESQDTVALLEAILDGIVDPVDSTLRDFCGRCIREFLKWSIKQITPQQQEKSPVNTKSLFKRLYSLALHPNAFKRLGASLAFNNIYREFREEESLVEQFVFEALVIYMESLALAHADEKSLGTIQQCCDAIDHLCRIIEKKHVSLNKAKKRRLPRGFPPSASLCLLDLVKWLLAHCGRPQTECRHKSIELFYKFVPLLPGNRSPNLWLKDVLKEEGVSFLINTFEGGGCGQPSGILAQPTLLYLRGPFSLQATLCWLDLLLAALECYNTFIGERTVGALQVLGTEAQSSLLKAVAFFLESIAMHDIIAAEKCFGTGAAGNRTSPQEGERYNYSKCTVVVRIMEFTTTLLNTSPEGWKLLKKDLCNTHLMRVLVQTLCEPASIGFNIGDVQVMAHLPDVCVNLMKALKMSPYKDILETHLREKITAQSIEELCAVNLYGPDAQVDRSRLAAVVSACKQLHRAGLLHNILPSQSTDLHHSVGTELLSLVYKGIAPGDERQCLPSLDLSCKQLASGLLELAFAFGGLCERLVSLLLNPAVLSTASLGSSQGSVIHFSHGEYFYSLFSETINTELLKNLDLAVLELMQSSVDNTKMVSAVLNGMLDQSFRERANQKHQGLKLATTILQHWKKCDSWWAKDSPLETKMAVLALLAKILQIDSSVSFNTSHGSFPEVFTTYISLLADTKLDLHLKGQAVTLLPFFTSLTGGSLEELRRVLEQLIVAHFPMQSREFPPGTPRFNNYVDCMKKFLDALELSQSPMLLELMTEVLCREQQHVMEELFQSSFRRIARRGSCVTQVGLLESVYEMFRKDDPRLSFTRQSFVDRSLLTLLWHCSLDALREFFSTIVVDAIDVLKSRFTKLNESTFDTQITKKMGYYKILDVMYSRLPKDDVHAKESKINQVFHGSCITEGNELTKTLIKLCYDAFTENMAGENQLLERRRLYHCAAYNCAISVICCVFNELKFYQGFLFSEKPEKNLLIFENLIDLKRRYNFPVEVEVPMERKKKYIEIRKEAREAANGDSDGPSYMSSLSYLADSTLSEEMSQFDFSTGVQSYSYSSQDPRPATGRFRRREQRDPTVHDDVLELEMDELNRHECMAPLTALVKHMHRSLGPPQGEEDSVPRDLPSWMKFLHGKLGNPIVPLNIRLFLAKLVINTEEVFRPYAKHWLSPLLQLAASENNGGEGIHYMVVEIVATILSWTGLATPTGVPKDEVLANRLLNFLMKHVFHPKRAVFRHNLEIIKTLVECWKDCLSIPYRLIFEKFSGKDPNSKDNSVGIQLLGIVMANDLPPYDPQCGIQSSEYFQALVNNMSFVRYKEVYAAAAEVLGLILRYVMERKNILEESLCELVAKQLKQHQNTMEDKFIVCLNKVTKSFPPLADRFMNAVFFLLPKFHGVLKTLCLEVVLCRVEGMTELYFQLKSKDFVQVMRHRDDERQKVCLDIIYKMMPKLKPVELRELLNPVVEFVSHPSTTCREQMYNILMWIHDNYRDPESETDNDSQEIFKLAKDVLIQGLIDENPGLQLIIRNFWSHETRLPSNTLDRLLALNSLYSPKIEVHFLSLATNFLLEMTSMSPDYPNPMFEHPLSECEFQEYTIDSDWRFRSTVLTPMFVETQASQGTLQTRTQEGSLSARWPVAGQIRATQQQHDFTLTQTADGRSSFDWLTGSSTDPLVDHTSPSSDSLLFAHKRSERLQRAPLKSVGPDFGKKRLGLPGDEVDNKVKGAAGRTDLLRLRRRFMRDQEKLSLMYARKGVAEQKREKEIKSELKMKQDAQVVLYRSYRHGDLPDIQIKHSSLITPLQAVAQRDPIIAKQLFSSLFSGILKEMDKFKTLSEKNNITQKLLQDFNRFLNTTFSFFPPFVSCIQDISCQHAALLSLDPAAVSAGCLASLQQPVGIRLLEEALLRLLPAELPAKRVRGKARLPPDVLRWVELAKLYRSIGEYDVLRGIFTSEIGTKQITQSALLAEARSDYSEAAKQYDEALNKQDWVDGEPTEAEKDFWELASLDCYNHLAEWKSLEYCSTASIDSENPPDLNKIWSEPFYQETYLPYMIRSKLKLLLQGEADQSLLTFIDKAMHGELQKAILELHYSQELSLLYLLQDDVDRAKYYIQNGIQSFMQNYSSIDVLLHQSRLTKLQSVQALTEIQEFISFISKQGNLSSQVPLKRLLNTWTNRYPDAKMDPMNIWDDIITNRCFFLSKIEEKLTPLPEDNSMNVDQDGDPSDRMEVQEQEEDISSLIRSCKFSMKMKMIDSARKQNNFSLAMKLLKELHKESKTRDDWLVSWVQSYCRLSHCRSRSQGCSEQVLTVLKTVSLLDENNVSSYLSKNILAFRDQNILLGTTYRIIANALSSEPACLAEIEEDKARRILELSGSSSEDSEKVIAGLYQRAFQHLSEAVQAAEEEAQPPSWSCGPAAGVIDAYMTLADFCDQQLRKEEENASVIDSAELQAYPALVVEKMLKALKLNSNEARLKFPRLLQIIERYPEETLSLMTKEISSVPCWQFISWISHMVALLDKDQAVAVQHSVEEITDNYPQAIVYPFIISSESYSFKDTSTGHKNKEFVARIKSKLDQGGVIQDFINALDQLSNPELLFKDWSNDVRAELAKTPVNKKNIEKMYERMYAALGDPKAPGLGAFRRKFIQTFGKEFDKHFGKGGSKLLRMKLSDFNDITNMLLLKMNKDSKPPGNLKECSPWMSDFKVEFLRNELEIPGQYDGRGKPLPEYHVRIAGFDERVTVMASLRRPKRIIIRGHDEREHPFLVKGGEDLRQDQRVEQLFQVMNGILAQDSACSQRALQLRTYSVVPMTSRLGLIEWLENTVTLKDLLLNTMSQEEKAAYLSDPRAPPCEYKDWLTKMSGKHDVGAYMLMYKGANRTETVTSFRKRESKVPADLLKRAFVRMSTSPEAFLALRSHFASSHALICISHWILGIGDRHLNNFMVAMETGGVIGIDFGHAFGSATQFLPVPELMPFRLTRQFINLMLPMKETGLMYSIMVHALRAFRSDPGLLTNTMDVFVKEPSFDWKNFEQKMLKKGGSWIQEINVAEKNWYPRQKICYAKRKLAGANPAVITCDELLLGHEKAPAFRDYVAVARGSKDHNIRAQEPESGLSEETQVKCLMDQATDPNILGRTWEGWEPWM

Molecular target: full-length AIRE (autoimmune regulator), transfected in HEK293 (human) (UniProt O43918)
Assay: co-IP; whole-cell extracts of HEK293 transfected with AIRE; IP with anti-DNA-PK 4F10C5, anti-AIRE 6.1 or control antibodies, protein G-Sepharose, 0.3 M NaCl, 4 C; Western blot with anti-AIRE or anti-DNA-PK

binding: binds
Substance: DNA-PK catalytic subunit (DNA-PKcs), HEK293 (from UniProt P78527 1-4128) (enzyme)
